Data published in the supplement of paper PMC8288183.
This is one part of the list. Single values are uncertain, as repeats are few or missing.

Target: T1, NSUN6 (UniProt Q8TEA1)
T1 sequence: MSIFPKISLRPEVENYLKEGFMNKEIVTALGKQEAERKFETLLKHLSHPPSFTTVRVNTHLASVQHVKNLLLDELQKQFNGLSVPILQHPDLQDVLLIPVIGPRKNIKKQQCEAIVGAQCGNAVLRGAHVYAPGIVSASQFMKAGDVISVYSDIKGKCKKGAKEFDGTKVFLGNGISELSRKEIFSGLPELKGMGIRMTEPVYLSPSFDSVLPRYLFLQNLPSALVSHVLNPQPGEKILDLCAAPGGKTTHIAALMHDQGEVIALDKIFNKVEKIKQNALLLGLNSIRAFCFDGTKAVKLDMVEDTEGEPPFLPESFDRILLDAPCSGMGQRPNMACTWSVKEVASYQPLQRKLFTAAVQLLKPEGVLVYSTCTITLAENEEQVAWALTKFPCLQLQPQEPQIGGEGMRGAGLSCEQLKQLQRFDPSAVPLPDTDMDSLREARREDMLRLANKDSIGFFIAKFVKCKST
Assay: m5C methylation level at the target C (C/(C+U) bisulfite reads) (fraction); higher = more methylation by NSUN6; extreme values may be limits of the assay
Conditions: HEK293T (wild-type)
Description: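 High-throughput mutagenesis reporter. About 140 bp oligo-pool variants of four natural Type II m5C substrates (substrate #1 chr15:91425541; #2 RAB15 3'UTR chr14:65413377; #3 SULT2A1 5'UTR chr19:48389569; #4 NAAA CDS chr4:76857361) were cloned as 3'UTR elements of psiCHECK-2 luciferase and transfected into wild-type HEK293T cells. Total RNA was taken 48 h later and m5C level was measured by targeted bisulfite sequencing as C/(C+U) reads at the m5C site (one library).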

[1] = parent substrate: substrate #1 (main figure)

Sequence	m5C methylation level at the target C [1]	m5C methylation level at the target C (parent substrate: substrate #2)	m5C methylation level at the target C (parent substrate: substrate #3)	m5C methylation level at the target C (parent substrate: substrate #4)
CCGUCA	0	0.00146	0.00203	0.00117
CCACGU	0.00483	0.00161	0.000603	0
ACGGGG	0.0106	0	0.00229	0.00357
UCUCGA	0.00631	0	0.0506	0.00995
GCUAGG	0.000876	0.00253	0.00223	0
UCAAGU	0	0	0	0.00122
ACACCG	0.000503	0	0	0.00124
UCUCAA	0.0108	0.00575	0.0188	0.0058
GCUGGU	0.00115	0	0.000767	0
CCCUAG	0.00123	0	0	0.000531
CCUAAU	0	0.00353	0.00118	0
GCGCUA	0.00754	0	0.00145	0.0024
UCCCGC	0	0	0.000674	0.0013
ACGUGG	0	0.000977	0.00222	0.000595
UCAGCA	0	0	0.00458	0.00178
ACUACU	0.000935	0.0023	0.00922	0
UCUAAA	0.006	0.000976	0	0.00109
CCAGAC	0.00181	0.00149	0	0.00106
